For two molecules, binding results are on record in paper PMC4187731, “WWP2-WWP1 Ubiquitin Ligase Complex Coordinated by PPM1G Maintains the Balance between Cellular p73 and ΔNp73 Levels” (Molecular and Cellular Biology, 2014).

Sequences of proteins named here, by UniProt entry; tags and fusion partners are left off.
UniProt O00308: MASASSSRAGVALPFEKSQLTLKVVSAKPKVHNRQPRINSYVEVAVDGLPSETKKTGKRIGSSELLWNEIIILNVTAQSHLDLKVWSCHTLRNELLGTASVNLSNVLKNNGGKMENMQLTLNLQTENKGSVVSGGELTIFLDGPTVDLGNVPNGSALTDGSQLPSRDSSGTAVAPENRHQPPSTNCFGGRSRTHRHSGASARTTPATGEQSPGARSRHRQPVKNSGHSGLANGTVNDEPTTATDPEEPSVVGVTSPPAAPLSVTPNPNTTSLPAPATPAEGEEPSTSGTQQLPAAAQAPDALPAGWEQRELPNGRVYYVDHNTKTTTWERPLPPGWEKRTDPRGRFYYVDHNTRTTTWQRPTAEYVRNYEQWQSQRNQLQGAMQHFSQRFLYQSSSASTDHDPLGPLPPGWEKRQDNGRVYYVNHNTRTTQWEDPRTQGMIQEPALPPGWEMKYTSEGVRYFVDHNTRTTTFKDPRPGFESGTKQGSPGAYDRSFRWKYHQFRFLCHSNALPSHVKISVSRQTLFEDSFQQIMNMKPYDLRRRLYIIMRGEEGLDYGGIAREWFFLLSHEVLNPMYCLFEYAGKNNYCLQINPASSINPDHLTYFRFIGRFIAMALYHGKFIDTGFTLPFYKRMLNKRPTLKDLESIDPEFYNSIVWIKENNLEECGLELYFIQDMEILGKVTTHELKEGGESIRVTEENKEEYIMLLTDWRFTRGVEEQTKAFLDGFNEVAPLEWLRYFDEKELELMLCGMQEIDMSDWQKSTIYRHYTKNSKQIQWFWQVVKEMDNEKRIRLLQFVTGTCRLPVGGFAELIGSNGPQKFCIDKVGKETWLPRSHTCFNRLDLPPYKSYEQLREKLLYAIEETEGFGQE

The target in the assay is SFB-WWP2 (WWP2 triple tagged with S-protein/Flag/SBP) (UniProt O00308). Briefly: affinity purification with mass spectrometry; tandem affinity purification of SFB-WWP2 from stable 293T cells: NETN lysate on streptavidin-Sepharose, biotin elution, S-protein-agarose, SDS-PAGE, mass spectrometry.

No constants are given. Whether binding was seen depends on the method and setting. In cells and extracts the contact can be indirect. A yes stands for co-enrichment or nearness to the bait. Other partners may have been found.

B1: GST-p73 (natural protein, UniProt O15350 1-636, looked up)
chain: MAQSTATSPDGGTTFEHLWSSLEPDSTYFDLPQSSRGNNEVVGGTDSSMDVFHLEGMTTSVMAQFNLLSSTMDQMSSRAASASPYTPEHAASVPTHSPYAQPSSTFDTMSPAPVIPSNTDYPGPHHFEVTFQQSSTAKSATWTYSPLLKKLYCQIAKTCPIQIKVSTPPPPGTAIRAMPVYKKAEHVTDVVKRCPNHELGRDFNEGQSAPASHLIRVEGNNLSQYVDDPVTGRQSVVVPYEPPQVGTEFTTILYNFMCNSSCVGGMNRRPILIIITLEMRDGQVLGRRSFEGRICACPGRDRKADEDHYREQQALNESSAKNGAASKRAFKQSPPAVPALGAGVKKRRHGDEDTYYLQVRGRENFEILMKLKESLELMELVPQPLVDSYRQQQQLLQRPSHLQPPSYGPVLSPMNKVHGGMNKLPSVNQLVGQPPPHSSAATPNLGPVGPGMLNNHGHAVPANGEMSSSHSAQSMVSGSHCTPPPPYHADPSLVSFLTGLGCPNCIEYFTSQGLQSIYHLQNLTIEDLGALKIPEQYRMTIWRGLQDLKQGHDYSTAQQLLRSSNAATISIGGSGELQRQRVMEAVHFRVRHTITIPNRGGPGGGPDEWADFGFDLPDCKARKQPIKEEFTEAEIH
notes: also called glutathione S-transferase (GST)–p73
B1: the binding entry was “binds”.

B2: PPM1G (endogenous) (enzyme, UniProt O15355 1-546)
chain: MGAYLSQPNTVKCSGDGVGAPRLPLPYGFSAMQGWRVSMEDAHNCIPELDSETAMFSVYDGHGGEEVALYCAKYLPDIIKDQKAYKEGKLQKALEDAFLAIDAKLTTEEVIKELAQIAGRPTEDEDEKEKVADEDDVDNEEAALLHEEATMTIEELLTRYGQNCHKGPPHSKSGGGTGEEPGSQGLNGEAGPEDSTRETPSQENGPTAKAYTGFSSNSERGTEAGQVGEPGIPTGEAGPSCSSASDKLPRVAKSKFFEDSEDESDEAEEEEEDSEECSEEEDGYSSEEAENEEDEDDTEEAEEDDEEEEEEMMVPGMEGKEEPGSDSGTTAVVALIRGKQLIVANAGDSRCVVSEAGKALDMSYDHKPEDEVELARIKNAGGKVTMDGRVNGGLNLSRAIGDHFYKRNKNLPPEEQMISALPDIKVLTLTDDHEFMVIACDGIWNVMSSQEVVDFIQSKISQRDENGELRLLSSIVEELLDQCLAPDTSGDGTGCDNMTCIIICFKPRNTAELQPESGKRKLEEVLSTEGAEENGNSDKKKKAKRD
In the case of B2, the binding result is given as “binds”.
